These are yes or no findings as the source states them, for the method shown. Binding calls can cover weak binding; strength is not graded here. Where a sequence is shown, tags or fusion partners need not be part of it.

Amino acid sequences for entries named in this document (tags omitted). A change or cut given only in a name is not applied to a line headed by its entry.
UniProt Q9FYA2: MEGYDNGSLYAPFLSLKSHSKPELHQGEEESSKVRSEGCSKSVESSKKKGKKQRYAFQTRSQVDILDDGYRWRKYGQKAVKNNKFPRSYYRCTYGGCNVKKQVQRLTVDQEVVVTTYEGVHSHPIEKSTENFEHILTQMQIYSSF

Drawing on paper PMC7904156, this text covers binding for two molecules.

The target in assay [1] is WRKY75 WRKY domain mutant (in pGBKT7) (Arabidopsis thaliana) (UniProt Q9FYA2). The experiment in a line: two-hybrid; directed test: bait (pGBKT7) and prey (pGADT7) vectors co-transformed into yeast; growth on synthetic dropout medium lacking Leu, Trp, His and Ade.
Assay [2] concerns the target WRKY75 zinc finger domain mutant (in pGBKT7) (Arabidopsis thaliana) (UniProt Q9FYA2). The description is as above.

B1: the 83 N-terminal residues of JAZ8 (containing the ZIM domain), fused to the AD domain of pGADT7 (domain or fragment, UniProt Q8LBM2 1-83)
chain: MKLQQNCDLELRLFPTSYDSDSSDTTSVVESTSSGNPQPNEESQRITIFYNGKMCFSSDVTHLQARSIISIASREMKTKSSSN
Consider B1, for which the binding result in assay [1] and in assay [2] was “no binding” throughout.

B2: JAZ8, full length, fused to the AD domain of pGADT7 (protein, UniProt Q8LBM2 1-131)
chain: MKLQQNCDLELRLFPTSYDSDSSDTTSVVESTSSGNPQPNEESQRITIFYNGKMCFSSDVTHLQARSIISIASREMKTKSSSNGSDPPNKSTSFHHNQLPNPKASMKKSLQSFLQKRKIRIQATSPYHSRR
For the molecule B2, the binding entry in assay [1] and in assay [2] was “binds” throughout.
